From US5686574
For part of these data: At least one result comes from cells or an extract, where the contact may be indirect. For part of these data: Where a protein sequence is shown, tags need not be part of it. For part of these data: For at least one entry, the source does not settle the construct or the ends of the probe. For part of these data: A negative result means that nothing was seen under these conditions.

Assays:
[1] = biological target: T1, TR beta (UniProt P10828); experiment: activity in cells; details: T3-dependent transactivation; JEG3 cells; protein in cells; only the site is given
T1 sequence (looked up, limits assumed): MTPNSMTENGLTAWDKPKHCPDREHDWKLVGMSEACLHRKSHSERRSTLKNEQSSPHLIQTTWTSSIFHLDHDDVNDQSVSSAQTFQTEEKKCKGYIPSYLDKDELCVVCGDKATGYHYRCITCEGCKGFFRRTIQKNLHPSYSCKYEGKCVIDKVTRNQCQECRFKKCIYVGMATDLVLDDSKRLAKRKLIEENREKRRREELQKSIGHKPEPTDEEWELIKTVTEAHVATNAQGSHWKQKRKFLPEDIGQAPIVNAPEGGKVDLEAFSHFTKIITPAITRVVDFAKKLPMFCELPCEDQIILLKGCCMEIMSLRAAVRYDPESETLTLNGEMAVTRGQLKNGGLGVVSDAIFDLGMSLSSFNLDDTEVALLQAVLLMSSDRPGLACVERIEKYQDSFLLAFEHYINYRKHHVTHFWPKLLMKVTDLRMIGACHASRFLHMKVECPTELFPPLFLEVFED

[2] = tested on: TR/GR chimera (TR A/B and C domains fused to GR D, E, F domains); experiment: activity in cells; details: ligand-dependent, relatively low activation; JEG3 cells; protein in cells; only the site is given
[3] = biological target: T2, CAR (intact, transfected) (Homo sapiens) (UniProt Q14994); experiment: activity in cells; details: protein in cells, only the site is given
T2 sequence (limits assumed): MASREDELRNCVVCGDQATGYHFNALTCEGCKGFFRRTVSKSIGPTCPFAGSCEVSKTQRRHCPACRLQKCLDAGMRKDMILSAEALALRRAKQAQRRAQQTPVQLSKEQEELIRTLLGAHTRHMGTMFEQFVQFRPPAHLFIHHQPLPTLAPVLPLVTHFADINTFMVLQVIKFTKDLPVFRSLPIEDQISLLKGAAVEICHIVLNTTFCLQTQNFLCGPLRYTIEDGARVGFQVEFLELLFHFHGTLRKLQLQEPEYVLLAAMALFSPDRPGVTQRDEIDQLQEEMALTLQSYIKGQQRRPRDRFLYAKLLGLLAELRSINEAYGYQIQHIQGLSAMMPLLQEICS

[4] = biological target: T3, CAR (constitutive activator of retinoid response, NR1I3) (Homo sapiens) (UniProt Q14994); experiment: EMSA; details: specific binding, lower apparent affinity than RAR alpha; no effect of mixing with RAR; protein in an extract
T3 sequence (limits assumed): T2 sequence (limits assumed)

[5] = tested on: CAR + RXR alpha; experiment: EMSA; details: CAR binding strongly stimulated by RXR alpha extract; protein in an extract
[6] = biological target: T4, RAR alpha (UniProt P10276); experiment: EMSA; details: higher apparent affinity than CAR; protein in an extract
T4 sequence (looked up, limits assumed): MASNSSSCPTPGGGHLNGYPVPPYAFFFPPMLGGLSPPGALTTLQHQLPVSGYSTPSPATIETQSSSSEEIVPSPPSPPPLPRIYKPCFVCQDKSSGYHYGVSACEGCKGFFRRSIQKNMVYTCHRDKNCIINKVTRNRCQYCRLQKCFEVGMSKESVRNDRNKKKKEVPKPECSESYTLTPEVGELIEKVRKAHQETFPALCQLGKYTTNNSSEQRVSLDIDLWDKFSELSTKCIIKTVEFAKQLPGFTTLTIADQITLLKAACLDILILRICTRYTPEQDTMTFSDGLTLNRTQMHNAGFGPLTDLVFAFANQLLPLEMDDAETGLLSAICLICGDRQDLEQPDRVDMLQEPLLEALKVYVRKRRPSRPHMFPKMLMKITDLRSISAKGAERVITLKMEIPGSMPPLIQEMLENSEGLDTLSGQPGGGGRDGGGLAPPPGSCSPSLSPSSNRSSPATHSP

[7] = tested on: T5, RAR beta; experiment: activity in cells; details: RA-induced activation; without RA excess RAR beta blocks CAR activation; protein in cells; only the site is given
T5 sequence (looked up, limits assumed): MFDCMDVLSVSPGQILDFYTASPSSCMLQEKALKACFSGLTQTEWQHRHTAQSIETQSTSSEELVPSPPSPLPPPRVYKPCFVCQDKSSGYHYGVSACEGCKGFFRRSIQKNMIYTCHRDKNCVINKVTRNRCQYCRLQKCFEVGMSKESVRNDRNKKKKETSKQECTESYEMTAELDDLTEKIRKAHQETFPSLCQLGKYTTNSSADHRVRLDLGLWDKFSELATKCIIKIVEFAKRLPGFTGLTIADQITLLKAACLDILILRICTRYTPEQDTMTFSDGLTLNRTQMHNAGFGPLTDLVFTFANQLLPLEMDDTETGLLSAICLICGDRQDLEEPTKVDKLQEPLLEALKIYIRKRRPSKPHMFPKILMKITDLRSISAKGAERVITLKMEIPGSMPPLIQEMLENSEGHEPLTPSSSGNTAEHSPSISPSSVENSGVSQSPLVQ

Sequence: AAAGGTAAGATCAGGGACGTGACCGCAG (double strand) [T3RE]
- activity on this sequence [1]: active
- activity on this sequence [2]: active

Sequence: AAAGGTAAGATCAGGGACGTGACCTCAG (double strand) [rat growth hormone T3RE/RARE up mutant]
- activity on this sequence ([3]; not transactivated, tandem copies, second inverted): not active

Sequence: AGACAGGTTGACCCTTTTTCTAAGGGCTTAACCTAGCTCACCTG (double strand) [laminin T3RE/RARE]
- activity on this sequence ([3]; not transactivated): not active

Sequence: AGGACGTTGGGGTTAGGGGAGGACAGTG (double strand) [rat malic enzyme T3RE]
- activity on this sequence ([3]; no response): not active

Sequence: CTGGAGGTGACAGGAGGACAGCAGCCCTGA (double strand) [rat alpha-myosin heavy chain T3RE]
- activity on this sequence ([3]; no response): not active

Sequence: GGGTAGGGTTCACCGAAAGTTCACTCG (double strand) [beta-RARE (RAR beta gene)]
- binding result [4]: binds
- binding result [5]: binds
- binding result [6]: binds
- activity on this sequence ([3]; constitutive transactivation without RA, JEG3 cotransfection (standard), stimulated by RXR alpha): active
- activity on this sequence [7]: active

Sequence: TGGGTGAATGAGGACATTACTGACCGCTCCG (double strand) [rat osteocalcin VDRE/RARE]
- activity on this sequence ([3]; no response in cotransfection): not active
